Test: peptide made by a vendor
Conditions: whole synthesis

## H-rerrsssqiGGsrisqyaGrrrqrrkkrG-NH2 (RERKSSSEIGGSRISQYAGRRRQRRKKRG; D-amino acids, retro-inverso, C-terminal amide; PYC35D-TAT peptide (the retroinverted form of PYC35 peptide comprising an N-terminal tat basic region protein transduction domain wherein all amino acids other than glycine are D-amino acids))
  purity (crude or final not stated): purity>90%
